Results published in the supplement of paper PMC4604168 (melanoma cell lines).
The list shows a part of the results. Many values rest on one well or one pass, so single values are uncertain.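 The apoptosis fraction was the count of cleaved-PARP antibody-stained nuclei relative to all DNA-stained nuclei, imaged in 1,536-well plates. Screening doses were set so most cells survived, and baseline and induced cleaved-PARP levels vary greatly across cell lines.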

What was measured:
Assay in all cases: cleaved PARP positive nuclei fraction relative to DMSO control; melanoma cells; higher = more apoptosis
Conditions in all cases: library dose: low library concentration; 72 h
501Mel = system: 501Mel
A101D = system: A101D
A2058 = system: A2058
A375 = system: A375
C32 = system: C32
CBRC013 = system: CBRC013 (line from a melanoma biopsy)
CBRC014 = system: CBRC014 (line from a melanoma biopsy)
CBRC016 = system: CBRC016 (line from a melanoma biopsy)
CBRC017 = system: CBRC017 (line from a melanoma biopsy)
CBRC034 = system: CBRC034 (line from a melanoma biopsy)
COLO792 = system: COLO792
COLO800 = system: COLO800
COLO829 = system: COLO829
G361 = system: G361
IPC-298 = system: IPC-298
IST-MEL1 = system: IST-MEL1
LB2518-MEL = system: LB2518-MEL
LOXIMVI = system: LOXIMVI

SMILES | cleaved PARP positive nuclei fraction (501Mel) [%] | cleaved PARP positive nuclei fraction (A101D) [%] | cleaved PARP positive nuclei fraction (A2058) [%] | cleaved PARP positive nuclei fraction (A375) [%] | cleaved PARP positive nuclei fraction (C32) [%] | cleaved PARP positive nuclei fraction (CBRC013) [%] | cleaved PARP positive nuclei fraction (CBRC014) [%] | cleaved PARP positive nuclei fraction (CBRC016) [%] | cleaved PARP positive nuclei fraction (CBRC017) [%] | cleaved PARP positive nuclei fraction (CBRC034) [%] | cleaved PARP positive nuclei fraction (COLO792) [%] | cleaved PARP positive nuclei fraction (COLO800) [%] | cleaved PARP positive nuclei fraction (COLO829) [%] | cleaved PARP positive nuclei fraction (G361) [%] | cleaved PARP positive nuclei fraction (IPC-298) [%] | cleaved PARP positive nuclei fraction (IST-MEL1) [%] | cleaved PARP positive nuclei fraction (LB2518-MEL) [%] | cleaved PARP positive nuclei fraction (LOXIMVI) [%]
Cc1cc(N2CCOCC2)cc2[nH]c(-c3c(NC[C@@H](O)c4cccc(Cl)c4)cc[nH]c3=O)nc12 + COc1ccc(COc2ccc(Cc3cnc(N)nc3N)cc2OC)cc1 [GW2580] (first compound 0.2 µM, partner dose 1 µM) | 70.2 | 48.5 | 116 | 108 | 195 | 210 | 110 | 66.5 | 99.9 | 47.9 | 140 | 123 | 105 | 130 | 120 | 170 | 176 | 39.8
C[C@@H]1CCN(C(=O)CC#N)C[C@@H]1N(C)c1ncnc2[nH]ccc12 + O=C1NC(=O)/C(=C/c2ccc(-c3ccc(F)cc3O)o2)S1 [AS252424] (first compound 1 µM, partner dose 1 µM) | 148 | 67.7 | 100 | 105 | 137 | 129 | 73.4 | 41.4 | 160 | 120 | 34.2 | 135 | 60.7 | 151 | 17.6 | 110 | 53.9 | 104
COc1cc(Nc2ncc(F)c(Nc3ccc4c(n3)NC(=O)C(C)(C)O4)n2)cc(OC)c1OC [Tamatinib] + O=C(O)C(=O)Nc1sc2c(c1C(=O)O)CCNC2 [TCS401] (first compound 0.4 µM, partner dose 1.66667 µM) | 44.2 | 69.6 | 96 | 125 | 49.2 | 50.7 | 97.8 | 86.8 | 121 | 94.9 | 99 | 240 | 163 | 75.8 | 151 | 56 | 102 | 21.3
Nc1cccc2c1CN(C1CCC(=O)NC1=O)C2=O (stereo not given) [lenalidomide] + CCc1ccc(CCOc2ccc(CC3SC(=O)NC3=O)cc2)nc1 [pioglitazone] (first compound 1 µM, partner dose 2 µM) | 86.1 | 219 | 51.3 | 38.1 | 187 | 135 | 85 | 202 | 91.9 | 45.4 | 146 | 120 | 188 | 37.8 | 52.9 | 42.5 | 44.8 | 36.4
Cc1nc(Nc2ncc(C(=O)Nc3c(C)cccc3Cl)s2)cc(N2CCN(CCO)CC2)n1 [dasatanib] + O=C(O)C(=O)Nc1sc2c(c1C(=O)O)CCNC2 [TCS401] (first compound 0.004 µM, partner dose 1.66667 µM) | 74.4 | 136 | 36.3 | 81.9 | 105 | 138 | 103 | 169 | 64.4 | 262 | 73.8 | 246 | 146 | 139 | 58.4 | 125 | 113 | 127
CC1(C)NC(=O)N(c2ccc([N+](=O)[O-])c(C(F)(F)F)c2)C1=O [nilutamide] + O=C(Nc1ccccc1)c1cc([N+](=O)[O-])ccc1Cl [GW9662] (first compound 1 µM, partner dose 2 µM) | 87.7 | 198 | 258 | 155 | 123 | 95.3 | 103 | 137 | 43.2 | 86.6 | 50 | 133 | 109 | 177 | 102 | 163 | 176 | 64.5
Cc1ccc(NC(=O)c2cccc(N(C)C)c2)cc1NC(=O)c1ccc(O)cc1 + CCc1ccc(CCOc2ccc(CC3SC(=O)NC3=O)cc2)nc1 [pioglitazone] (first compound 2 µM, partner dose 2 µM) | 90 | 72.2 | 63.8 | 80.5 | 76.9 | 82.8 | 110 | 72.7 | 101 | 49.8 | 14.4 | 107 | 51.1 | 130 | 50.8 | 34.8 | 76.4 | 30.8
COc1cc(Nc2ncc(F)c(Nc3ccc4c(n3)NC(=O)C(C)(C)O4)n2)cc(OC)c1OC [Tamatinib] + COc1ccc(-c2ccc3c(N4CCOCC4)nc(N4C[C@@H](C)O[C@@H](C)C4)nc3n2)cc1CO [KU0063794] (first compound 0.4 µM, partner dose 0.02 µM) | 87.6 | 95.6 | 119 | 309 | 96.6 | 382 | 104 | 62.1 | 76.1 | 33.6 | 263 | 79.1 | 133 | 132 | 114 | 113 | 139 | 31.9
Cn1nnc2c(C(N)=O)ncn2c1=O [temozolomide] + O=S(=O)(c1ccccc1)N(CC(F)(F)F)c1ccc(C(O)(C(F)(F)F)C(F)(F)F)cc1 [T0901317] (first compound 2 µM, partner dose 1.4 µM) | 82.4 | 15.7 | 213 | 108 | 94.2 | 40 | 119 | 33.5 | 75.1 | 79.9 | 59.3 | 87.1 | 185 | 74.4 | 94.6 | 18.5 | 72.2 | 72.4
CC1(C)NC(=O)N(c2ccc([N+](=O)[O-])c(C(F)(F)F)c2)C1=O [nilutamide] + COc1ccc2c(c1)CCC1C2CCC2(C)C(NCCCCCCN3C(=O)C=CC3=O)CCC12 [U73122] (first compound 1 µM, partner dose 0.4 µM) | 50.3 | 146 | 48.5 | 83.1 | 44 | 206 | 96.5 | 28.8 | 72.1 | 93 | 179 | 75 | 84 | 59.4 | 41.8 | 42.7 | 160 | 81.9
C[C@@H]1CCN(C(=O)CC#N)C[C@@H]1N(C)c1ncnc2[nH]ccc12 + Cc1cc([N+](=O)[O-])ccc1NS(=O)(=O)c1cc(Cl)ccc1Cl [FH535] (first compound 1 µM, partner dose 1 µM) | 75.3 | 351 | 85.6 | 140 | 44 | 276 | 295 | 3030 | 517 | 545 | 107 | 159 | 96.8 | 86.9 | 92.8 | 47.3 | 84.9 | 60.3
Cc1ccc(NC(=O)c2cccc(N(C)C)c2)cc1NC(=O)c1ccc(O)cc1 + COc1ccc2c(c1)CCC1C2CCC2(C)C(NCCCCCCN3C(=O)C=CC3=O)CCC12 [U73122] (first compound 2 µM, partner dose 0.4 µM) | 84.3 | 75.8 | 32 | 199 | 72.2 | 35.4 | 115 | 17.8 | 114 | 52.3 | 32.4 | 141 | 120 | 158 | 248 | 35.4 | 89.8 | 108
Cn1c(Nc2ccc(C(F)(F)F)cc2)nc2cc(Oc3ccnc(-c4ncc(C(F)(F)F)[nH]4)c3)ccc21 + COc1ccc2c(c1)CCC1C2CCC2(C)C(NCCCCCCN3C(=O)C=CC3=O)CCC12 [U73122] (first compound 0.08 µM, partner dose 0.4 µM) | 243 | 90.5 | 172 | 752 | 54.6 | 138 | 135 | 496 | 126 | 459 | 550 | 158 | 172 | 250 | 145 | 236 | 194 | 183
CC(C)(C)c1cnc(CSc2cnc(NC(=O)C3CCNCC3)s2)o1 + c1cc(-c2cnn3cc(-c4ccc(OCCN5CCCCC5)cc4)cnc23)ccn1 [Dorsomorphin] (first compound 0.01 µM, partner dose 0.4 µM) | 41 | 122 | 120 | 235 | 113 | 182 | 110 | 76.1 | 198 | 40.2 | 96.5 | 94.7 | 140 | 103 | 54.7 | 98.2 | 86.2 | 92.8
C[C@]1(c2nc3c(C(N)=O)cccc3[nH]2)CCCN1 [Veliparib] + CC(C)CCN1c2nc(Nc3cc(F)c(O)c(F)c3)ncc2N(C)C(=O)C1C [BID1870] (first compound 1.4 µM, partner dose 0.2 µM) | 90.2 | 85.4 | 140 | 146 | 89.6 | 95.2 | 197 | 263 | 83.9 | 41.8 | 186 | 102 | 87.2 | 169 | 91.2 | 84.6 | 89.5 | 37.2

Pulled one by one from the list above (two):
SMILES | cleaved PARP positive nuclei fraction (501Mel) [%] | cleaved PARP positive nuclei fraction (A101D) [%] | cleaved PARP positive nuclei fraction (A2058) [%] | cleaved PARP positive nuclei fraction (A375) [%] | cleaved PARP positive nuclei fraction (C32) [%] | cleaved PARP positive nuclei fraction (CBRC013) [%] | cleaved PARP positive nuclei fraction (CBRC014) [%] | cleaved PARP positive nuclei fraction (CBRC016) [%] | cleaved PARP positive nuclei fraction (CBRC017) [%] | cleaved PARP positive nuclei fraction (CBRC034) [%] | cleaved PARP positive nuclei fraction (COLO792) [%] | cleaved PARP positive nuclei fraction (COLO800) [%] | cleaved PARP positive nuclei fraction (COLO829) [%] | cleaved PARP positive nuclei fraction (G361) [%] | cleaved PARP positive nuclei fraction (IPC-298) [%] | cleaved PARP positive nuclei fraction (IST-MEL1) [%] | cleaved PARP positive nuclei fraction (LB2518-MEL) [%] | cleaved PARP positive nuclei fraction (LOXIMVI) [%]
COc1cc(Nc2ncc(F)c(Nc3ccc4c(n3)NC(=O)C(C)(C)O4)n2)cc(OC)c1OC [Tamatinib] + O=C(O)C(=O)Nc1sc2c(c1C(=O)O)CCNC2 [TCS401] (first compound 0.4 µM, partner dose 1.66667 µM) | 44.2 | 69.6 | 96 | 125 | 49.2 | 50.7 | 97.8 | 86.8 | 121 | 94.9 | 99 | 240 | 163 | 75.8 | 151 | 56 | 102 | 21.3
C[C@@H]1CCN(C(=O)CC#N)C[C@@H]1N(C)c1ncnc2[nH]ccc12 + O=C1NC(=O)/C(=C/c2ccc(-c3ccc(F)cc3O)o2)S1 [AS252424] (first compound 1 µM, partner dose 1 µM) | 148 | 67.7 | 100 | 105 | 137 | 129 | 73.4 | 41.4 | 160 | 120 | 34.2 | 135 | 60.7 | 151 | 17.6 | 110 | 53.9 | 104
